According to the supplement of paper PMC10735217:
Values joined by “and” are separate entries in the source; they are usually repeats but may differ in a detail not shown here. Equal entries are not always repeated. Structures can show the parent of a compound that is named as a salt. The list shows a part of the results. Single values are uncertain here, since repeats match poorly.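 In a drug-repurposing library screen, luminescence reads luciferase driven by eight TEAD-binding elements, stably integrated into human kidney-derived cells. Compounds scoring over five robust Z scores above the plate mean are called hits.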

System: HEK293A TEAD-LUC reporter
Assay: TEAD-luciferase reporter activity (YAP activation), robust Z score vs plate; higher = stronger YAP/TEAD activation
Conditions: 24 h

Compound | TEAD-luciferase reporter activity (compound concentration: 2 uM) | TEAD-luciferase reporter activity (compound concentration: 200 nM) | TEAD-luciferase reporter activity (compound concentration: 10 uM)
CN(C)C(=N)NCCC[C@H](N)C(=O)O | inactive: 0.266 | – | –
CN(C)C(=N)NCCC[C@H](N)C(=O)O [N^G,N^G-Dimethylarginine hydrochloride] | – | inactive: -0.726 | inactive: -0.191
COc1cccc2c1C(=O)c1c(O)c3c(c(O)c1C2=O)C[C@@](O)(/C(CO)=N/NC(=O)CCCCCN1C(=O)C=CC1=O)C[C@@H]3O[C@H]1C[C@H](N)[C@H](O)[C@H](C)O1 [Aldoxorubicin] | – | inactive: -2.83 | inactive: -1.15
COc1cccc2c1C(=O)c1c(O)c3c(c(O)c1C2=O)C[C@@](O)(/C(CO)=N/NC(=O)CCCCCN1C(=O)C=CC1=O)C[C@@H]3O[C@H]1C[C@H](N)[C@H](O)[C@H](C)O1 [Aldoxorubicin hydrochloride] | inactive: -0.382 | – | –
COc1cccc(-c2ccc([C@@H](Oc3cc(-c4ccc(C[C@H](N)C(=O)O)cc4)nc(N)n3)C(F)(F)F)cc2)c1 | inactive: -1.14 | inactive: -0.374 | inactive: 1.84
CCCNC(=O)c1cn2ncnc(Nc3cc(C(=O)NC4CC4)ccc3C)c2c1C | inactive: -0.619 | inactive: 0.0223 | inactive: 3.23
CC(CN1c2ccccc2Sc2cccnc21)N(C)C (configuration not stated) | inactive: -0.797 | inactive: 0.989 | inactive: -0.805
CCOc1cccc(C(CC)n2nc(C(=O)O)c3c2-c2ccc(OCc4cncnc4)cc2CC3)c1 (configuration not stated) | inactive: 2.2 | inactive: 0.215 | inactive: 1.15
CC(C)NC(=O)C1CCCN1c1nc2ncccc2o1 (configuration not stated) | – | inactive: -1.63 | inactive: 1.9
O=C(Nc1cccc(C(F)(F)F)c1)c1cccc2cc(Oc3cc(CO)ncn3)ccc12 | inactive: -0.755 | inactive: -2.34 | inactive: 0.431
CCN(CC)CC#CCOC(=O)C(O)(c1ccccc1)C1CCCCC1 (configuration not stated) [esoxybutynin] | inactive: 1.63 | – | –
CCN(CC)CC#CCOC(=O)C(O)(c1ccccc1)C1CCCCC1 (configuration not stated) | – | inactive: 3.21 | inactive: -0.475
COc1c(C(C)n2cnc3ncccc32)ccc2c1C=CC(C)(C)O2 (configuration not stated) | inactive: 0.763 | inactive: -0.0267 | inactive: -2.61
O=C(/C=C\n1cnc(-c2cc(C(F)(F)F)cc(C(F)(F)F)c2)n1)NNc1ccccn1 [Verdinexor] | inactive: -0.89 | inactive: 3.22 | inactive: 1.21
CN(C)CCOc1ccccc1Cc1ccccc1 | inactive: -1.7 | inactive: -0.808 | inactive: -2.57
Cn1c(=O)c2c(ncn2CCO)n(C)c1=O [Etofylline] | inactive: -0.308 | inactive: -1.53 | inactive: 0.186
O=C(O)C(=S)Cc1ccc(I)cc1 | inactive: -0.711 and inactive: -1.06 | inactive: -1.49 | inactive: -1.54
CCCCCN1CCCCC12Cc1ccccc1CNC2=O (configuration not stated) | – | active: 7.39 | inactive: 0.789
CC1(C)c2nc(-c3ccc(F)cc3)c(Nc3ccc(F)cc3)n2CCN1C(=O)CN | inactive: -0.621 | inactive: -0.442 | inactive: 3.83
Cc1nc(NCCCCCCc2ccccc2)nc(C)c1O | inactive: -0.57 | inactive: -1.16 | inactive: 2.91
C[C@]1(COc2ccc(N3CCC(Oc4ccc(OC(F)(F)F)cc4)CC3)cc2)Cn2cc([N+](=O)[O-])nc2O1 | inactive: -0.274 | inactive: 0.215 | inactive: -0.0262
O=C(OC(CN1CCN(c2ccncc2)CC1)CN1C(=O)[C@@H]2[C@H](C1=O)[C@@H]1C=C[C@H]2C1)C1CCCCC1 (some centres not stated) | inactive: -0.794 | inactive: -1.45 | inactive: -1.71
Cc1cnc(NS(=O)(=O)c2ccc(N)cc2)nc1 | inactive: 3.52 | inactive: -1.74 | inactive: 0.0232
CC(C)(O)C(C)(O)c1ccc(Cl)cc1 (configuration not stated) | inactive: -0.589 | inactive: -0.559 | inactive: 0.8
O=c1c(O[C@@H]2O[C@H](CO)[C@H](O)[C@H](O)[C@H]2O)c(-c2ccc(O)c(O)c2)oc2cc(O)cc(O)c12 [Hyperoside] | inactive: -0.168 | – | –
O=c1c(O[C@@H]2O[C@H](CO)[C@H](O)[C@H](O)[C@H]2O)c(-c2ccc(O)c(O)c2)oc2cc(O)cc(O)c12 | – | inactive: -1.01 | inactive: 3.13
C=C(CO[C@@H]1O[C@@H](CO[C@@H]2OC[C@H](O)[C@H](O)[C@H]2O)[C@@H](O)[C@H](O)[C@H]1O)[C@@H]1Cc2c(ccc3c2OC2COc4cc(OC)c(OC)cc4C2C3=O)O1 (some centres not stated) | inactive: -1.51 | inactive: -1.13 | inactive: -1.42
O=C(CC(O)C(CC1CCCCC1)NC(=O)C(Cc1cscn1)NC(=O)C(CC(=O)N1CCOCC1)Cc1cccc2ccccc12)NCCN1CCOCC1 (configuration not stated) | inactive: -0.0364 | inactive: -1.5 | inactive: 0.902
CC(=O)NCC(=O)N1Cc2ccccc2CC2(CCCN2Cc2ccccc2)C1 (configuration not stated) | – | inactive: 0.156 | inactive: 3.8

A run of entries from the list above, as a working copy:
Compound | TEAD-luciferase reporter activity (compound concentration: 2 uM) | TEAD-luciferase reporter activity (compound concentration: 200 nM) | TEAD-luciferase reporter activity (compound concentration: 10 uM)
CCN(CC)CC#CCOC(=O)C(O)(c1ccccc1)C1CCCCC1 (configuration not stated) | – | inactive: 3.21 | inactive: -0.475
COc1c(C(C)n2cnc3ncccc32)ccc2c1C=CC(C)(C)O2 (configuration not stated) | inactive: 0.763 | inactive: -0.0267 | inactive: -2.61
O=C(/C=C\n1cnc(-c2cc(C(F)(F)F)cc(C(F)(F)F)c2)n1)NNc1ccccn1 [Verdinexor] | inactive: -0.89 | inactive: 3.22 | inactive: 1.21
CN(C)CCOc1ccccc1Cc1ccccc1 | inactive: -1.7 | inactive: -0.808 | inactive: -2.57
Cn1c(=O)c2c(ncn2CCO)n(C)c1=O [Etofylline] | inactive: -0.308 | inactive: -1.53 | inactive: 0.186
O=C(O)C(=S)Cc1ccc(I)cc1 | inactive: -0.711 and inactive: -1.06 | inactive: -1.49 | inactive: -1.54
CCCCCN1CCCCC12Cc1ccccc1CNC2=O (configuration not stated) | – | active: 7.39 | inactive: 0.789
CC1(C)c2nc(-c3ccc(F)cc3)c(Nc3ccc(F)cc3)n2CCN1C(=O)CN | inactive: -0.621 | inactive: -0.442 | inactive: 3.83
